The results in this text go back to PMC7070008.

Results are given in words; binding and its absence hold for the method and conditions named. Binding seen in cells or lysates may run through a third protein. Binding calls can cover weak binding; strength is not graded here.

In experiment [1] the target is T1, plakoglobin (γ-catenin) (mouse (endogenous in mouse skeletal muscle, heart and liver)) (UniProt Q02257).
T1 sequence: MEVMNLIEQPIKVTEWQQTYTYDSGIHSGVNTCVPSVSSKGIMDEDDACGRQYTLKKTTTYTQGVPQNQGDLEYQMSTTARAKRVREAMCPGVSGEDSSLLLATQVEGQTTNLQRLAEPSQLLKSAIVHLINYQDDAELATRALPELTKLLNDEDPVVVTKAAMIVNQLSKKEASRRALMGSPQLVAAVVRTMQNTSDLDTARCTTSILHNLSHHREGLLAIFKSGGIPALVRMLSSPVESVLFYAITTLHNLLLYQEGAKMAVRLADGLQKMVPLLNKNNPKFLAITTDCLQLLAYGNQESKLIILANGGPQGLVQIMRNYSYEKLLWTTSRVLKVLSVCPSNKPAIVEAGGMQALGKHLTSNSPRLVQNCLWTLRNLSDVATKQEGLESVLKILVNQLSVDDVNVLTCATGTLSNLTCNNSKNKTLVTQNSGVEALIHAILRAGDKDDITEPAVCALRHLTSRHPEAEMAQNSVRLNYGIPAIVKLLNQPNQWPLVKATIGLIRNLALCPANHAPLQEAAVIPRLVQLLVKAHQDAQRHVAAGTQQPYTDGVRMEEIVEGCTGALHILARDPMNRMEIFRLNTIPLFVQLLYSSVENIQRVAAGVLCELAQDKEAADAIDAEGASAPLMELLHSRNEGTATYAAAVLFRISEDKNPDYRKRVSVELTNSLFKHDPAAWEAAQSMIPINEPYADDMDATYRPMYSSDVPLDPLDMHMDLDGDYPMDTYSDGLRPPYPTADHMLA
Nature of the experiment: co-IP; anti-plakoglobin from fraction #16 of a 10–40% glycerol gradient of the membrane-cytoskeleton fraction of mouse muscle; immunoblotting. (In general: Immunoblotting shows a protein as a band on a membrane.)

In experiment [2] the target is T1, plakoglobin (γ-catenin) (mouse (endogenous in mouse skeletal muscle, heart and liver)). Nature of the experiment: co-IP; coimmunoprecipitation in mouse heart and liver (Supplementary Fig. 2).
The target in experiment [3] is T2, α-1-syntrophin (mouse (endogenous in mouse skeletal muscle)) (UniProt Q61234).
T2 sequence: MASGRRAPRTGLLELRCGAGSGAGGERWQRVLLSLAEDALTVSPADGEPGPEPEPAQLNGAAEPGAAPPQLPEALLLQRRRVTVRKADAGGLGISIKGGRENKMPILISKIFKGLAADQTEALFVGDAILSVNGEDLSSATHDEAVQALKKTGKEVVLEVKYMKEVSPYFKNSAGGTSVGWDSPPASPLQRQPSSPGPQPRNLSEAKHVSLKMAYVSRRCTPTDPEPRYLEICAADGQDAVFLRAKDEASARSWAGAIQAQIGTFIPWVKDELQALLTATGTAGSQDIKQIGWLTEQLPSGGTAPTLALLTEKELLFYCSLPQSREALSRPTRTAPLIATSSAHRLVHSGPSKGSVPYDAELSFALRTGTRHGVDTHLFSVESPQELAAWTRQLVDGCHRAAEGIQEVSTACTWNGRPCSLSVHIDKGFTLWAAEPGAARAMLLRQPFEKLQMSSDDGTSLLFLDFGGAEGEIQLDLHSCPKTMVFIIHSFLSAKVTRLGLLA
Briefly: co-IP; α-1-syntrophin antibody, membrane fractions or extracts of mouse muscle; also from mice injected with saline or glucose and muscles expressing shLacz or shJUP (Fig. 3c); immunoblotting.

For the next experiment, the target named is ΔN-plakoglobin. Briefly: pull-down; 6His-tagged FL plakoglobin and 6His-V5-tagged truncation mutants purified from transfected mouse muscles on a Nickel column with a histidine gradient; immunoblotting and densitometric protein ratios.
The target in a further experiment is plakoglobin-ΔC. Described as above.

In the case of p85 regulatory subunit of PI3K, the binding result in experiment [1], in experiment [2] and in experiment [3] was “binds” in each case.

B1: β-dystroglycan (protein, UniProt Q62165 652-893)
chain: SIVVEWTNNTLPLEPCPKEQIIGLSRRIADENGKPRPAFSNALEPDFKALSIAVTGSGSCRHLQFIPVAPPSPGSSAAPATEVPDRDPEKSSEDDVYLHTVIPAVVVAAILLIAGIIAMICYRKKRKGKLTLEDQATFIKKGVPIIFADELDDSKPPPSSSMPLILQEEKAPLPPPEYPNQSMPETTPLNQDTVGEYTPLRDEDPNAPPYQPPPPFTAPMEGKGSRPKNMTPYRSPPPYVPP
modifications: glycosylated form detected (glycosylated β-dystroglycan)
For the molecule B1, the binding entry with ΔN-plakoglobin and with plakoglobin-ΔC was “binds” each time.
